{
  "source": "patent US10047050B2",
  "about": "“3,4-di-substituted pyridine compound, methods of using and compositions comprising the same” (ARDEA BIOSCIENCES, INC., priority 2011, dated 2018)",
  "system": "serum uric acid",
  "experiment": "Single-dose Phase I clinical trial, serum uric acid (sUA) 0-72 hours post-dose",
  "type": "in vivo, human",
  "conditions": "individual subjects 3-8",
  "description": "A Phase 1, Randomized, Double-Blind, Placebo-Controlled Study to Evaluate Safety, Tolerability, Pharmacokinetics and Preliminary Food Effect of Single Doses of a URAT1 Inhibitor, in Healthy Adult Male Volunteers.\nTo assess safety, tolerability, pharmacokinetics and uricosuric effects after oral administration as single doses of a tablet formulation and the effect of food on bioavailability.\nSubjects receive a single, oral dose of active or placebo, at the following doses:\nGroup 4: 20 mg (fasted) [sentinel dosing];\n48 subjects in 6 dose groups, 8 subjects/group, are randomized 3:1 to receive active (6/group) or placebo (2/group). All study procedures are the same regardless of whether subject receives active or placebo. The total duration of subject participation, including screening period, is ˜2-4 weeks, and the total volume of blood collected from each subject during the entire study <500 mL, (less than typically collected during a volunteer blood donation).\n5 mg and 20 mg, active and placebo, tablets packaged in 35 count HDPE bottles, stored at controlled room temperature (15-30° C.). Placebo tablets are designed to match the active tablets—identical size, form, taste, and color, and containing the same excipients. 2 mg was dosed as an oral solution.\nSubjects dosed on the morning of Day 1 with ˜240 mL of room temp water.\nFasted: subjects are dosed after overnight fast >10 hours and remain fasted until >4 hours post-dose.\nFed: subjects fast overnight for >10 hours, then are dosed 30 mins after completing standard moderate fat breakfast (no high fructose corn syrup).\nSerum samples are collected at:\nPD samples are frozen (−20° C.) and stored; all samples from a given subject assayed in a single analytical run.",
  "key": {"[1]": {"conditions": "Group 4, 20 mg single oral dose, fasted, 36 h post-dose"}, "[2]": {"conditions": "Group 4, 20 mg single oral dose, fasted, 48 h post-dose"}, "[3]": {"conditions": "Group 4, 20 mg single oral dose, fasted, 54 h post-dose"}, "[4]": {"conditions": "Group 4, 20 mg single oral dose, fasted, 60 h post-dose"}, "[5]": {"conditions": "Group 4, 20 mg single oral dose, fasted, 72 h post-dose"}, "[6]": {"conditions": "Group 5, 20 mg single oral dose, fed, 0 h (baseline)"}, "[7]": {"conditions": "Group 5, 20 mg single oral dose, fed, 6 h post-dose"}, "[8]": {"conditions": "Group 5, 20 mg single oral dose, fed, 12 h post-dose"}, "[9]": {"conditions": "Group 5, 20 mg single oral dose, fed, 24 h post-dose"}, "[10]": {"conditions": "Group 5, 20 mg single oral dose, fed, 30 h post-dose"}, "[11]": {"conditions": "Group 5, 20 mg single oral dose, fed, 36 h post-dose"}, "[12]": {"conditions": "Group 5, 20 mg single oral dose, fed, 48 h post-dose"}, "[13]": {"conditions": "Group 5, 20 mg single oral dose, fed, 54 h post-dose"}, "[14]": {"conditions": "Group 5, 20 mg single oral dose, fed, 60 h post-dose"}, "[15]": {"conditions": "Group 5, 20 mg single oral dose, fed, 72 h post-dose"}, "[16]": {"conditions": "Group 6, 40 mg single oral dose, fasted, 12 h post-dose"}, "[17]": {"conditions": "Group 6, 40 mg single oral dose, fasted, 24 h post-dose"}, "[18]": {"conditions": "Group 6, 40 mg single oral dose, fasted, 30 h post-dose"}, "[19]": {"conditions": "Group 6, 40 mg single oral dose, fasted, 36 h post-dose"}},
  "note": "Several values for one entry are separate records, joined by “and”; a condition that tells them apart may be missing. Equal values may be shown once. Further values from the same series stand in other lists.",
  "data": [
    {"molecule": "CC(C)(Sc1ccncc1-c1ccc(C#N)c2ccccc12)C(=O)O", "note": "[2-((3-(4-cyanonaphthalen-1-yl)pyridin-4-yl)thio)-2-methylpropanoic acid]", "values": [
      {"measurement": "% sUA reduction (from baseline)", "setting": "[1]", "result": "−52.6% and −46.1% and −45.9% and −45.2% and −52.5% and −48.2%"},
      {"measurement": "Absolute sUA concentration", "setting": "[1]", "result": "3.7 mg/dL and 4.1 mg/dL and 4.0 mg/dL and 3.4 mg/dL and 2.8 mg/dL and 2.9 mg/dL"},
      {"measurement": "% sUA reduction (from baseline)", "setting": "[2]", "result": "−48.7% and −35.5% and −36.5% and −38.7% and −42.4% and −32.1%"},
      {"measurement": "Absolute sUA concentration", "setting": "[2]", "result": "4.0 mg/dL and 4.9 mg/dL and 4.7 mg/dL and 3.8 mg/dL (2×) and 3.4 mg/dL"},
      {"measurement": "% sUA reduction (from baseline)", "setting": "[3]", "result": "−48.7% and −32.9% and −27.0% and −37.1% and −45.8% and −33.9%"},
      {"measurement": "Absolute sUA concentration", "setting": "[3]", "result": "4.0 mg/dL and 5.1 mg/dL and 5.4 mg/dL and 3.9 mg/dL and 3.2 mg/dL and 3.7 mg/dL"},
      {"measurement": "% sUA reduction (from baseline)", "setting": "[4]", "result": "−46.2% and −32.9% and −29.7% and −35.5% and −45.8% and −35.7%"},
      {"measurement": "Absolute sUA concentration", "setting": "[4]", "result": "4.2 mg/dL and 5.1 mg/dL and 5.2 mg/dL and 4.0 mg/dL and 3.2 mg/dL and 3.6 mg/dL"},
      {"measurement": "% sUA reduction (from baseline)", "setting": "[5]", "result": "−28.2% and −15.8% and −14.9% and −16.1% and −30.5% and −23.2%"},
      {"measurement": "Absolute sUA concentration", "setting": "[5]", "result": "5.6 mg/dL and 6.4 mg/dL and 6.3 mg/dL and 5.2 mg/dL and 4.1 mg/dL and 4.3 mg/dL"},
      {"measurement": "% sUA reduction (from baseline)", "setting": "[6]", "result": 0, "unit": "%"},
      {"measurement": "Absolute sUA concentration", "setting": "[6]", "result": "8.1 mg/dL and 7.8 mg/dL and 7.6 mg/dL and 6.4 mg/dL and 6.3 mg/dL and 6.1 mg/dL"},
      {"measurement": "% sUA reduction (from baseline)", "setting": "[7]", "result": "−38.3% and −46.2% and −53.9% and −43.8% and −42.9% and −42.6%"},
      {"measurement": "Absolute sUA concentration", "setting": "[7]", "result": "5.0 mg/dL and 4.2 mg/dL and 3.5 mg/dL (2×) and 3.6 mg/dL (2×)"},
      {"measurement": "% sUA reduction (from baseline)", "setting": "[8]", "result": "−50.6% and −52.6% and −68.4% and −60.9% and −52.4% and −54.1%"},
      {"measurement": "Absolute sUA concentration", "setting": "[8]", "result": "4.0 mg/dL and 3.7 mg/dL and 2.4 mg/dL and 2.5 mg/dL and 3.0 mg/dL and 2.8 mg/dL"},
      {"measurement": "% sUA reduction (from baseline)", "setting": "[9]", "result": "−44.4% (2×) and −41.0% and −59.2% and −50.0% and −37.7%"},
      {"measurement": "Absolute sUA concentration", "setting": "[9]", "result": "4.5 mg/dL and 4.6 mg/dL and 3.1 mg/dL and 3.2 mg/dL and 3.5 mg/dL and 3.8 mg/dL"},
      {"measurement": "% sUA reduction (from baseline)", "setting": "[10]", "result": "−46.9% and −46.2% and −56.6% and −53.1% and −49.2% and −36.1%"},
      {"measurement": "Absolute sUA concentration", "setting": "[10]", "result": "4.3 mg/dL and 4.2 mg/dL and 3.3 mg/dL and 3.0 mg/dL and 3.2 mg/dL and 3.9 mg/dL"},
      {"measurement": "% sUA reduction (from baseline)", "setting": "[11]", "result": "−49.4% and −48.7% and −56.6% and −53.1% and −52.4% and −39.3%"},
      {"measurement": "Absolute sUA concentration", "setting": "[11]", "result": "4.1 mg/dL and 4.0 mg/dL and 3.3 mg/dL and 3.0 mg/dL (2×) and 3.7 mg/dL"},
      {"measurement": "% sUA reduction (from baseline)", "setting": "[12]", "result": "−40.7% and −38.5% and −38.2% and −42.2% and −42.9% and −23.0%"},
      {"measurement": "Absolute sUA concentration", "setting": "[12]", "result": "4.8 mg/dL (2×) and 4.7 mg/dL (2×) and 3.7 mg/dL and 3.6 mg/dL"},
      {"measurement": "% sUA reduction (from baseline)", "setting": "[13]", "result": "−43.2% and −38.5% and −38.2% and −42.2% and −42.9% and −27.9%"},
      {"measurement": "Absolute sUA concentration", "setting": "[13]", "result": "4.6 mg/dL and 4.8 mg/dL and 4.7 mg/dL and 3.7 mg/dL and 3.6 mg/dL and 4.4 mg/dL"},
      {"measurement": "% sUA reduction (from baseline)", "setting": "[14]", "result": "−44.4% (2×) and −39.7% and −38.2% and −45.3% and −29.5%"},
      {"measurement": "Absolute sUA concentration", "setting": "[14]", "result": "4.5 mg/dL and 4.7 mg/dL (2×) and 3.5 mg/dL (2×) and 4.3 mg/dL"},
      {"measurement": "% sUA reduction (from baseline)", "setting": "[15]", "result": "−34.6% and −29.5% and −26.3% and −29.7% and −33.3% and −18.0%"},
      {"measurement": "Absolute sUA concentration", "setting": "[15]", "result": "5.3 mg/dL and 5.5 mg/dL and 5.6 mg/dL and 4.5 mg/dL and 4.2 mg/dL and 5.0 mg/dL"},
      {"measurement": "Absolute sUA concentration", "setting": "Group 6, 40 mg single oral dose, fasted, 0 h (baseline)", "result": "7.6 mg/dL and 7.4 mg/dL and 6.8 mg/dL and 6.1 mg/dL and 5.9 mg/dL and 5.7 mg/dL"},
      {"measurement": "Absolute sUA concentration", "setting": "Group 6, 40 mg single oral dose, fasted, 6 h post-dose", "result": "5.8 mg/dL and 3.6 mg/dL and 4.2 mg/dL and 2.8 mg/dL and 3.0 mg/dL and 3.3 mg/dL"},
      {"measurement": "% sUA change (from baseline)", "setting": "[16]", "result": "−69.5% and −59.6%"},
      {"measurement": "Absolute sUA concentration", "setting": "[16]", "result": "4.5 mg/dL and 2.3 mg/dL (2×) and 3.2 mg/dL and 2.2 mg/dL and 1.8 mg/dL"},
      {"measurement": "% sUA change (from baseline)", "setting": "[17]", "result": "−47.4% and −63.5% and −51.5% and −55.7% and −71.2% and −56.1%"},
      {"measurement": "Absolute sUA concentration", "setting": "[17]", "result": "4.0 mg/dL and 2.7 mg/dL (2×) and 3.3 mg/dL and 1.7 mg/dL and 2.5 mg/dL"},
      {"measurement": "% sUA change (from baseline)", "setting": "[18]", "result": "−53.9% and −66.2% and −58.8% and −55.7% and −74.6% and −54.4%"},
      {"measurement": "Absolute sUA concentration", "setting": "[18]", "result": "3.5 mg/dL and 2.5 mg/dL and 2.8 mg/dL and 2.7 mg/dL and 1.5 mg/dL and 2.6 mg/dL"},
      {"measurement": "% sUA change (from baseline)", "setting": "[19]", "result": "−59.2% and −66.2% and −60.3% and −55.7% and −74.6% and −52.6%"},
      {"measurement": "Absolute sUA concentration", "setting": "[19]", "result": "3.1 mg/dL and 2.5 mg/dL and 2.7 mg/dL (3×) and 1.5 mg/dL"},
      {"measurement": "Absolute sUA concentration", "setting": "Group 6, 40 mg single oral dose, fasted, 48 h post-dose", "result": "3.5 mg/dL (2×) and 3.7 mg/dL and 3.8 mg/dL and 2.6 mg/dL and 3.1 mg/dL"},
      {"measurement": "Absolute sUA concentration", "setting": "Group 6, 40 mg single oral dose, fasted, 54 h post-dose", "result": "3.3 mg/dL and 3.9 mg/dL and 3.4 mg/dL (2×) and 3.7 mg/dL and 2.7 mg/dL"},
      {"measurement": "Absolute sUA concentration", "setting": "Group 6, 40 mg single oral dose, fasted, 60 h post-dose", "result": "3.3 mg/dL and 3.7 mg/dL (2×) and 3.5 mg/dL and 2.8 mg/dL and 3.6 mg/dL"},
      {"measurement": "Absolute sUA concentration", "setting": "Group 6, 40 mg single oral dose, fasted, 72 h post-dose", "result": "4.5 mg/dL (2×) and 5.1 mg/dL and 4.9 mg/dL and 4.1 mg/dL and 4.6 mg/dL"}
    ]}
  ]
}
